Results are given in words; binding and its absence hold for the method and conditions named. Binding seen in cells or lysates may run through a third protein. These calls come from enrichment with a bait or labelling near it, and not all partners need be listed. Where a sequence is shown, tags or fusion partners need not be part of it.
T1: USP48 (endogenous retinal USP48) (mouse (endogenous in retina)) (UniProt Q3V0C5)
T1 sequence: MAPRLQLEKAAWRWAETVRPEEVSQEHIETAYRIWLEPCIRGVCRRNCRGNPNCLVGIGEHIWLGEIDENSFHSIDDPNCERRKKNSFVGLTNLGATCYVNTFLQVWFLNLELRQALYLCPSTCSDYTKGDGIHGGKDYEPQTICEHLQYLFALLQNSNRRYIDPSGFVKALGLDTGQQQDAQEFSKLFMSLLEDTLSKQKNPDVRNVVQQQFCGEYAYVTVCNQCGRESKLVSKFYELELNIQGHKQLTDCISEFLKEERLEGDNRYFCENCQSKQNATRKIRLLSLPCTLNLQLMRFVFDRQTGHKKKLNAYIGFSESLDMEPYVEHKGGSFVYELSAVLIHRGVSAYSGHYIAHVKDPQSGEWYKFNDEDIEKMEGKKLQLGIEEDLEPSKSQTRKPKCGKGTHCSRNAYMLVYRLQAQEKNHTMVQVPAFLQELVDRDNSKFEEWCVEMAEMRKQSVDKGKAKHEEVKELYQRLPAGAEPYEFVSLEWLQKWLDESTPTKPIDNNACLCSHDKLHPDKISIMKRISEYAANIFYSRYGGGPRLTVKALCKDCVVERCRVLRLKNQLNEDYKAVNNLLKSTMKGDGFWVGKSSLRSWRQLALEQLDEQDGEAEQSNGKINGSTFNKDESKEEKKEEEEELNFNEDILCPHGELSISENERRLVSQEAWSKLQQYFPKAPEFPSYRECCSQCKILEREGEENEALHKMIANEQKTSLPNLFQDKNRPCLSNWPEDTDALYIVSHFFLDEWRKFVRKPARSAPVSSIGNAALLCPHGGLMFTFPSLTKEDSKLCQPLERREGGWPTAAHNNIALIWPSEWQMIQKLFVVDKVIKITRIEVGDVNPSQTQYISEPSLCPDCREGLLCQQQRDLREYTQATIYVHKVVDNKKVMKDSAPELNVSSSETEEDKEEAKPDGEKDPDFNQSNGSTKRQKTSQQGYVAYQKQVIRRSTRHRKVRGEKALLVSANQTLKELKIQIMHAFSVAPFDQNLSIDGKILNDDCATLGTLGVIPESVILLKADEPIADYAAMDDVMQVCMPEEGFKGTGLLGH

Amino acid sequences for entries named in this document (tags omitted).
UniProt Q9WUL7: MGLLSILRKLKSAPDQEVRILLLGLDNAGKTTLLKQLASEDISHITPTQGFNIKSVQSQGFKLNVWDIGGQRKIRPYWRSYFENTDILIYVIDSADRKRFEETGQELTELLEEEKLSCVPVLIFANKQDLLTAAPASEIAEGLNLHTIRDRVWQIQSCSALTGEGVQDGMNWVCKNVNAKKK
UniProt Q9JHU4: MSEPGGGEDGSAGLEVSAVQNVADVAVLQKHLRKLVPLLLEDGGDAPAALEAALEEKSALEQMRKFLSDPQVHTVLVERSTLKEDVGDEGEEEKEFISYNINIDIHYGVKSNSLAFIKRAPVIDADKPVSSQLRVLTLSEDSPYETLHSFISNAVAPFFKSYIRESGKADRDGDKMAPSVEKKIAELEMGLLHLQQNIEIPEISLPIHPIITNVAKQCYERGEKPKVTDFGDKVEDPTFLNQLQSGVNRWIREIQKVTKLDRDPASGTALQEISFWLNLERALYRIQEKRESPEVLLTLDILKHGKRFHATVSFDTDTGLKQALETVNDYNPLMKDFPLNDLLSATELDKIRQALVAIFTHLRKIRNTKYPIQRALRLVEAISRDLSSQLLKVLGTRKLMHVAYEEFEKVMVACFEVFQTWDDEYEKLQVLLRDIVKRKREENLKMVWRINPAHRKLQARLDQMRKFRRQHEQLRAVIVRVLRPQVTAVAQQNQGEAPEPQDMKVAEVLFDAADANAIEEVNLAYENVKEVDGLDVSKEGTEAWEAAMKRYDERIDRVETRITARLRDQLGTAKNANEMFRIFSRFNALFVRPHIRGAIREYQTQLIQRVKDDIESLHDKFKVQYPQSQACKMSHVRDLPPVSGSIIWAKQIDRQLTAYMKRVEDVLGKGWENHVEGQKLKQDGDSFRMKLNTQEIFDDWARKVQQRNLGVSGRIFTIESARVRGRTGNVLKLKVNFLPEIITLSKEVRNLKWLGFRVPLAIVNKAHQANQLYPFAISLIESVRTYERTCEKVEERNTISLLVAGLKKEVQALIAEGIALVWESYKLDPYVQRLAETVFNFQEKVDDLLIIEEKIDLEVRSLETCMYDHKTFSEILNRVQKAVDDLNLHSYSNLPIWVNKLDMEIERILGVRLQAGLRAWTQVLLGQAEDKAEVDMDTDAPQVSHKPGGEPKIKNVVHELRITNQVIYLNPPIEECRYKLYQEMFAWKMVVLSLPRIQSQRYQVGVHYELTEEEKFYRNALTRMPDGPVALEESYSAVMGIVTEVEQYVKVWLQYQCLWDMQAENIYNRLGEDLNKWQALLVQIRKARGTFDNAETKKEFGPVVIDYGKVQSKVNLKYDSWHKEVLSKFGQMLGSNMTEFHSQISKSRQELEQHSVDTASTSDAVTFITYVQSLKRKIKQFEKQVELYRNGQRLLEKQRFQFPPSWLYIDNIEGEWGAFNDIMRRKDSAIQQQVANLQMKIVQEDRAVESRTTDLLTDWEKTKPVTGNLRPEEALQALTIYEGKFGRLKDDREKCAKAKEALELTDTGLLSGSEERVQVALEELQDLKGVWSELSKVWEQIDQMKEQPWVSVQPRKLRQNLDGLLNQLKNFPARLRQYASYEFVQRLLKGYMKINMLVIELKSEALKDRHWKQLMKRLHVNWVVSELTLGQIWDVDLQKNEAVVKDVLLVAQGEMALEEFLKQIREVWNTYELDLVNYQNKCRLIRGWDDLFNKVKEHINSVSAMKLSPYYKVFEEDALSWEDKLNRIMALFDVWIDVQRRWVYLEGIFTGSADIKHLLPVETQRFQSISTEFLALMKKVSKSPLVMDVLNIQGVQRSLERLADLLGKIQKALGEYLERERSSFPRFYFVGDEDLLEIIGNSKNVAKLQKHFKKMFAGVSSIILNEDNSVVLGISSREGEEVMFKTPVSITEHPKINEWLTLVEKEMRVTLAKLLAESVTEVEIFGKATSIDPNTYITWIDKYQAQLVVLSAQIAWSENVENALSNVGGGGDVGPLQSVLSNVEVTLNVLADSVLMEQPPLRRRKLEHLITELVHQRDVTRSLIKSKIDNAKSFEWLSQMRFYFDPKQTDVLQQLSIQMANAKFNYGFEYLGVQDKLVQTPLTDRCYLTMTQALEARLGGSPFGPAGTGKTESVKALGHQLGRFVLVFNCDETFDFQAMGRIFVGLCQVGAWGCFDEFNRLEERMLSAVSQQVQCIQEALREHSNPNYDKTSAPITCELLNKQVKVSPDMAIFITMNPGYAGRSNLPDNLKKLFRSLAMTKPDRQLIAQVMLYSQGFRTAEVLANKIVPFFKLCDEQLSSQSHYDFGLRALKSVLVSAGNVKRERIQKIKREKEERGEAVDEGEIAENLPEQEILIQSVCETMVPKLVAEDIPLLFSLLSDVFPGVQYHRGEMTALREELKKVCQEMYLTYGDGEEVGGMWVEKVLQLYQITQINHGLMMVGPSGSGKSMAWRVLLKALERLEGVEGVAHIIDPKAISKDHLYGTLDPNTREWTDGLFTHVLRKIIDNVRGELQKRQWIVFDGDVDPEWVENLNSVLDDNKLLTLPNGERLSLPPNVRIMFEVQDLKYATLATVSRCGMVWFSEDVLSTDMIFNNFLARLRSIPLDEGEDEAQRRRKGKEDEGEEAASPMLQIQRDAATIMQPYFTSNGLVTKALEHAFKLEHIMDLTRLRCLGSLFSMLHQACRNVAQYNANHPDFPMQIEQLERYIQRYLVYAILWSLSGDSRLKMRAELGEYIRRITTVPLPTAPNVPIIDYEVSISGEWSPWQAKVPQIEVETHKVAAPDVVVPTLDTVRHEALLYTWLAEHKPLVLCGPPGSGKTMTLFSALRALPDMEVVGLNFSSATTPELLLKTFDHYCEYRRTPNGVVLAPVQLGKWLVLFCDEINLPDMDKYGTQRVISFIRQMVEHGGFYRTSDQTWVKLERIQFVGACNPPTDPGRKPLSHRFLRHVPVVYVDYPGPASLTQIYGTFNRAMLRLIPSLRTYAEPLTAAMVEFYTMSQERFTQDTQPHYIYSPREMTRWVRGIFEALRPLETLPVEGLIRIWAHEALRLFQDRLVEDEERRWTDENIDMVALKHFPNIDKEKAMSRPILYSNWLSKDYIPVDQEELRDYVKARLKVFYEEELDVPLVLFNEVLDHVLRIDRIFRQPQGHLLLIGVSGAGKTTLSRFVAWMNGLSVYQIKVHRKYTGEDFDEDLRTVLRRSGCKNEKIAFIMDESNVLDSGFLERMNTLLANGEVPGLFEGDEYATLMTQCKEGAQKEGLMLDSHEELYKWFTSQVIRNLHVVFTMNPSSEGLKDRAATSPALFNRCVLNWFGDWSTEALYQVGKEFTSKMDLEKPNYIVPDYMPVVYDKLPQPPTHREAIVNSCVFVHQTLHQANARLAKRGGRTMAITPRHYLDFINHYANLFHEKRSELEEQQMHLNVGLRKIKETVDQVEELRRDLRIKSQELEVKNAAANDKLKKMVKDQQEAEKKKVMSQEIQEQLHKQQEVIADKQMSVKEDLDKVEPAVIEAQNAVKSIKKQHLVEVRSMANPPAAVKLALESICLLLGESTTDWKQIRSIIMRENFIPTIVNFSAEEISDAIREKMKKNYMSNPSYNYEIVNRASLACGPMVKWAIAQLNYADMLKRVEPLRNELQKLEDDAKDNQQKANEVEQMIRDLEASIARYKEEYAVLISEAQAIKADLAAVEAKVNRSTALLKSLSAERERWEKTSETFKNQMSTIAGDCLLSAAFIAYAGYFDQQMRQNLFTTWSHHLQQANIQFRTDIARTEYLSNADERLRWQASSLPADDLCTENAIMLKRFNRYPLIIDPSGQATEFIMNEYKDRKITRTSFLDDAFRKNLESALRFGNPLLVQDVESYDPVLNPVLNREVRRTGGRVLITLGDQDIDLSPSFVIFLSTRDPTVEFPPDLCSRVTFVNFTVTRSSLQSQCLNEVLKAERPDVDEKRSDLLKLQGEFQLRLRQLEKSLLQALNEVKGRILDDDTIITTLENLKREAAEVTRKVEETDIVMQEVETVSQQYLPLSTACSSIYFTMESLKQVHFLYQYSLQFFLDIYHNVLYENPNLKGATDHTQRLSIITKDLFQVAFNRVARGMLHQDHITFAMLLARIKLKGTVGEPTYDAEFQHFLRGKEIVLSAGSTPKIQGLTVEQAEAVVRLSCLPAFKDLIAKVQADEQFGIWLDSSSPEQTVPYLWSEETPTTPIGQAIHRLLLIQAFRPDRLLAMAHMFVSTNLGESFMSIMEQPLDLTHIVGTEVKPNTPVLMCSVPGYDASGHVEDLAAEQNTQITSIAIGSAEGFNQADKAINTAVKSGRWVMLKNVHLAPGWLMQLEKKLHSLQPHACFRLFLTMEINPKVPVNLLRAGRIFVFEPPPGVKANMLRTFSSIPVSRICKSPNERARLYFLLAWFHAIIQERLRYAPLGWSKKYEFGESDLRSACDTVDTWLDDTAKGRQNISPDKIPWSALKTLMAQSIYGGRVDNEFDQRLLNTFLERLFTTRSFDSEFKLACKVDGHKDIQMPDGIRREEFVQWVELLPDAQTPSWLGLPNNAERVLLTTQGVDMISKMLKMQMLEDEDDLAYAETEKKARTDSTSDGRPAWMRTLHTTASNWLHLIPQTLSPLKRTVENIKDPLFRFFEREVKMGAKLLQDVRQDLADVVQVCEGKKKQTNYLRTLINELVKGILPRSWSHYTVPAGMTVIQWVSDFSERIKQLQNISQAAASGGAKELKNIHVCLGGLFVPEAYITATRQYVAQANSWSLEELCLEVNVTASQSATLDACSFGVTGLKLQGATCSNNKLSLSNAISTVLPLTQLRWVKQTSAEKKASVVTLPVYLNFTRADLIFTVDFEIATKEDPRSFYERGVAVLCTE
UniProt P50149: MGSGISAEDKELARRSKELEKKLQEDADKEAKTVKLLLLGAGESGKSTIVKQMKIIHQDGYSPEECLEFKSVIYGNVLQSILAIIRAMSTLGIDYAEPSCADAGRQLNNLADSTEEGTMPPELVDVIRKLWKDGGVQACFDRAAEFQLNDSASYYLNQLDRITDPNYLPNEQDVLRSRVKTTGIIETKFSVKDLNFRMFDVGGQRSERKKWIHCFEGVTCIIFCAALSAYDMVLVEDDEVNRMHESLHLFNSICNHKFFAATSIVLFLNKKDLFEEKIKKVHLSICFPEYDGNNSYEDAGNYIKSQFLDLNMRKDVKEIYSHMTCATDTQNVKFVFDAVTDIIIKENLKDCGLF
UniProt Q62433: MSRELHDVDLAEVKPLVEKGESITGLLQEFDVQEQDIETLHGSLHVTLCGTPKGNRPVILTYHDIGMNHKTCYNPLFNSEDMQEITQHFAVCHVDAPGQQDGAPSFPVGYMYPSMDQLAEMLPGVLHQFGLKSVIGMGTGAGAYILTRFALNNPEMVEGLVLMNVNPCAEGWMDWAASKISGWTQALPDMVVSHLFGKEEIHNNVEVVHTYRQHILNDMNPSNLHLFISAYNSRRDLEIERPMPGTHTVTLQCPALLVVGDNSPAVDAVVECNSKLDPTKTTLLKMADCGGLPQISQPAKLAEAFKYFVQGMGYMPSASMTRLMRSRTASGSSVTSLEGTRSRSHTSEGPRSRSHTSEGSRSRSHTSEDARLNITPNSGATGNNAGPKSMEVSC
UniProt Q8R1Q8: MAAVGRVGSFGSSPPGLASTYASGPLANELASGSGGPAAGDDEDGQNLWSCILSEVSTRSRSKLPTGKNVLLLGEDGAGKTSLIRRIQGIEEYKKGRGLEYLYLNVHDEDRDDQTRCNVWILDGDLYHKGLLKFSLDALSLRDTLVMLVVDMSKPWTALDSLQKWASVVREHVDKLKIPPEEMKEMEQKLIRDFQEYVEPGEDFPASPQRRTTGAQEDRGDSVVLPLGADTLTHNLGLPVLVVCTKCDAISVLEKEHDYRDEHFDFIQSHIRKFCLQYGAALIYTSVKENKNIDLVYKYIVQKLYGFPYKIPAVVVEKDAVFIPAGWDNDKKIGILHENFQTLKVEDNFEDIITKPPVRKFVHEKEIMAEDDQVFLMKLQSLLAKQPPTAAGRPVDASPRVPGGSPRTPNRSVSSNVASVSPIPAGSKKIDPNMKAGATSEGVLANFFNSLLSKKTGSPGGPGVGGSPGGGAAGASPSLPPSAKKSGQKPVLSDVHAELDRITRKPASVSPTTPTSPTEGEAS
UniProt P68368: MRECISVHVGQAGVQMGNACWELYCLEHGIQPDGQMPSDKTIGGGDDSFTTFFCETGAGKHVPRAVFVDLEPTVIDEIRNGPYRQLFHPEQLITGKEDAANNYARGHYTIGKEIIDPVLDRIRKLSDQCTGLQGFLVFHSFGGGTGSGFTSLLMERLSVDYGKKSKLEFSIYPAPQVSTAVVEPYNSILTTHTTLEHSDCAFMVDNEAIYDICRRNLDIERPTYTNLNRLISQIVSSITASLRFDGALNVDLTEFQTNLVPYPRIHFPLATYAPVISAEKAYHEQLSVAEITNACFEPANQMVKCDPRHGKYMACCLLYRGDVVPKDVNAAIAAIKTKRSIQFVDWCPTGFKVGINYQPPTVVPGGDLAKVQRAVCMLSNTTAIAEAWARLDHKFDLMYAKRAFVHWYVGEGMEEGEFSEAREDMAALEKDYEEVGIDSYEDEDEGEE

B1: Peripherin 2 (protein, UniProt P15499 1-346)
chain: MALLKVKFDQKKRVKLAQGLWLMNWLSVLAGIVLFSLGLFLKIELRKRSEVMNNSESHFVPNSLIGVGVLSCVFNSLAGKICYDALDPAKYAKWKPWLKPYLAVCIFFNVILFLVALCCFLLRGSLESTLAYGLKNGMKYYRDTDTPGRCFMKKTIDMLQIEFKCCGNNGFRDWFEIQWISNRYLDFSSKEVKDRIKSNVDGRYLVDGVPFSCCNPSSPRPCIQYQLTNNSAHYSYDHQTEELNLWLRGCRAALLNYYSSLMNSMGVVTLLVWLFEVSITAGLRYLHTALESVSNPEDPECESEGWLLEKSVPETWKAFLESFKKLGKSNQVEAEGADAGPAPEAG
B2: S-opsin (receptor, UniProt P51491 1-346)
chain: MSGEDDFYLFQNISSVGPWDGPQYHLAPVWAFRLQAAFMGFVFFVGTPLNAIVLVATLHYKKLRQPLNYILVNVSLGGFLFCIFSVFTVFIASCHGYFLFGRHVCALEAFLGSVAGLVTGWSLAFLAFERYVVICKPFGSIRFNSKHALMVVLATWIIGIGVSIPPFFGWSRFIPEGLQCSCGPDWYTVGTKYRSEYYTWFLFIFCFIIPLSLICFSYSQLLRTLRAVAAQQQESATTQKAEREVSHMVVVMVGSFCLCYVPYAALAMYMVNNRNHGLDLRLVTIPAFFSKSSCVYNPIIYCFMNKQFRACILEMVCRKPMADESDVSGSQKTEVSTVSSSKVGPH
B3: Chaperonin-containing T-complex protein 1 subunit 2 (protein, UniProt P80314 1-535)
chain: MASLSLAPVNIFKAGADEERAETARLSSFIGAIAIGDLVKSTLGPKGMDKILLSSGRDAALMVTNDGATILKNIGVDNPAAKVLVDMSRVQDDEVGDGTTSVTVLAAELLREAESLIAKKIHPQTIISGWREATKAAREALLSSAVDHGSDEARFWQDLMNIAGTTLSSKLLTHHKDHFTKLAVEAVLRLKGSGNLEAIHVIKKLGGSLADSYLDEGFLLDKKIGVNQPKRIENAKILIANTGMDTDKIKIFGSRVRVDSTAKVAEIEHAEKEKMKEKVERILKHGINCFINRQLIYNYPEQLFGAAGVMAIEHADFAGVERLALVTGGEIASTFDHPELVKLGSCKLIEEVMIGEDKLIHFSGVALGEACTIVLRGATQQILDEAERSLHDALCVLAQTVKDPRTVYGGGCSEMLMAHAVTQLANRTPGKEAVAMESFAKALRMLPTIIADNAGYDSADLVAQLRAAHSEGHITAGLDMKEGTIGDMAVLGITESFQVKRQVLLSAAEAAEVILRVDNIIKAAPRKRVPDHHPC
B4: α-glucosidase II (enzyme, UniProt Q8BHN3 33-944)
chain: VDRSNFKTCDESSFCKRQRSIRPGLSPYRALLDTLQLGPDALTVHLIHEVTKVLLVLELQGLQKNMTRIRIDELEPRRPRYRVPDVLVADPPTARLSVSGRDDNSVELTVAEGPYKIILTAQPFRLDLLEDRSLLLSVNARGLMAFEHQRAPRVPQESKDPAEGNGAQPEATPGDGDKPEETQEKAEKDEPGAWEETFKTHSDSKPYGPTSVGLDFSLPGMEHVYGIPEHADSLRLKVTEGGEPYRLYNLDVFQYELNNPMALYGSVPVLLAHSFHRDLGIFWLNAAETWVDISSNTAGKTLFGKMLDYLQGSGETPQTDIRWMSESGIIDVFLMLGPSVFDVFRQYASLTGTQALPPLFSLGYHQSRWNYRDEADVLEVDQGFDDHNMPCDVIWLDIEHADGKRYFTWDPTRFPQPLNMLEHLASKRRKLVAIVDPHIKVDSGYRVHEELRNHGLYVKTRDGSDYEGWCWPGSASYPDFTNPRMRAWWSNMFSFDNYEGSAPNLYVWNDMNEPSVFNGPEVTMLKDAVHYGGWEHRDIHNIYGLYVHMATADGLIQRSGGIERPFVLSRAFFSGSQRFGAVWTGDNTAEWDHLKISIPMCLSLALVGLSFCGADVGGFFKNPEPELLVRWYQMGAYQPFFRAHAHLDTGRREPWLLASQYQDAIRDALFQRYSLLPFWYTLFYQAHKEGFPVMRPLWVQYPEDMSTFSIEDQFMLGDALLIHPVSDAGAHGVQVYLPGQEEVWYDIQSYQKHHGPQTLYLPVTLSSIPVFQRGGTIVPRWMRVRRSSDCMKDDPITLFVALSPQGTAQGELFLDDGHTFNYQTRHEFLLRRFSFSGSTLVSSSADPKGHLETPIWIERVVIMGAGKPAAVVLQTKGSPESRLSFQHDPETSVLILRKPGVSVASDWSIHLR
B5: Phosphodiesterase 6C (enzyme, UniProt Q91ZQ1 1-861)
chain: MGEISQEAVERYLEKNPCFAKEYFDKKLRVEALGVIFKNSHAGVQTGLSLPEMTQVEESAVCLELLQCMQDEAGSAEQMAHRALQRLAQLLQADCCSMFSCRARNGIPEVASRLLNVTPTSKFEDNLVAPDREVVFPLDIGIVGWVAHVKKALNVSDVKKNSHFSDFMDKQTGYVTRNLLAVPIVAGKEVLAVVMAVNKISAPEFSKQDEEVFSKYLSFVAVALRLQHTSYLYSVESRRSQILMWSANKVFEELTDVERQFHKALYTIRTYLNCDRYSIGLLDMTKEKEFYDEWPIKLGEVEPYKGPKTPDGREIIFYKIIDYILHGKEEINVIPSPPADHWTLVSGLPTYVAENGFICNMLNAPADEYFTFQKGPVDETGWVIKNVLSLPIVNKKEDIVGVATFYNRKDGKPFDEHDEHITETLTQFLGWSLLNTDTYERVNKLESRKDIAQEMVMNLTKATPDEISSILKFKEKLNVEVIEECEERQLLAILKEDLPDPRTADLYEFCFSDFPITEHELVKCGLRLFLEINVVEKFKVPVEVLTRWMYTVRKGYRPVTYHNWRHGFNVGQTMFTLLMTGRLKKYYTDLEAFAMLAAAFCHDIDHRGTNNLYQMKSTSPLARLHGTSILERHHLEYSKTLLQDESLNIFQNLNKRQFETVIHLFEVAIIATDLALYFKKRTMFQKIVDTCEQMQSEEETIKYVTSDPTKKEVIMAMMMTACDLSAITKPWEVQSQVALLVANEFWEQGDLERTVLQQQPIPMMDRSKKDELPKLQVGFIDFVCTFVYKEFSRFHGEITPMLNGLQNNRVEWKSLAEEYEAKVKVTEEEAGKQEEEASDGKAATDLGGSAEDKKSKTCLML
B6: Regulator of G protein signalling 9 (protein, UniProt O54828 1-675)
chain: MTIRHQGQQYRPRMAFLQKIEALVKDMQNPETGVRMHNQRVLVTSVPHAMTGGDVLQWITQRLWISNLEAQNLGNFIVKYGYIYPLQDPKNLILKPDSSLYRFQTPYFWPTQQWPAEDTDYAIYLAKRNIKKKGILEEYEKENYDFLNKKINYKWDFVIMQAKEQYRTGKERNKADRYALDCQEKAYWLVHRSPPGMNNVLDYGLDRVTNPNEVKKQTVTAVRKEIMYYQQALMRSTVKSSVSLGGIVKYSEQFSSNDAIMSGCLPSNPWITDDTQFWDLNAKLVEIPTKMRVERWAFNFSELIRDPKGRQSFQYFLKKEFSGENLGFWEACEDLKYGDQSKVKEKAEEIYKLFLAPGARRWINIDGKTMDITVKGLRHPHRYVLDAAQTHIYMLMKKDSYARYLKSPIYKEMLAKAIEPQETTKRSSTLPFMRRHLRSSPSPVILRQLEEEEKAREAANTVDITQPGQHLAPSPHLAVYTGTCVPPSPSSPFSPSCRSPRKPFASPSRFIRRPSIAICPSPSRVALEGSSGLEPKGEASWSGANSGPSVTENREPSADHSRPQPRAPPKARAALSLGRFLRRGCLASPVFARLSPKCPSVSHGKVQPLGDMGQQLPRLKPKKVANFFQIKMEMPTDSGTCLMDSDDPRAGESGDQTTEKEVICPWESLAEGKAG

What follows are molecules tested against T1, USP48 (endogenous retinal USP48) (mouse (endogenous in retina)) (assay: affinity purification with mass spectrometry; non-denaturing immunoprecipitation of endogenous USP48 from lysates of twelve mouse retinas with anti-USP48 (ab72226), Protein G Sepharose, lysis buffer 50 mM TrisHCl pH 7.5, 1 mM EDTA, 150 mM NaCl, 0.5% Nonidet P-40; eluate by LC-MS/MS; proteins also present in the anti-GFP control sample …).

binding | Molecule
binds | ADP-ribosylation factor-like GTPase 3 (from UniProt Q9WUL7 1-182)
binds | Crystallin Mu (from UniProt O54983 1-313)
binds | Cytoplasmic dynein 1 heavy chain 1 (from UniProt Q9JHU4 1-4644)
binds | Dynactin 2 (from UniProt Q99KJ8 1-402)
binds | G protein subunit α-transducin 2 (from UniProt P50149 1-354)
binds | Inosine Monophosphate dehydrogenase 1 (from UniProt P50096 1-514) (enzyme)
binds | Microtubule-associated protein 1B (from UniProt P14873 1-2464)
binds | N-myc downstream regulated 1 (from UniProt Q62433 1-394)
binds | Retinal-specific phospholipid-transporting ATPase ABCA4 (from UniProt O35600 1-2310)
binds | cytoplasmic dynein 1 intermediate chain 2 (from UniProt O88487 1-612)
binds | cytoplasmic dynein 1 light intermediate chain 1 (from UniProt Q8R1Q8 1-523)
binds | dynactin 1 (from UniProt O08788 1-1281)
binds | microtubule-associated protein 2 (from UniProt P20357 1-1828)
binds | microtubule-associated protein 4 (from UniProt P27546 1-1125)
binds | microtubule-associated protein 6 (from UniProt Q7TSJ2 1-906)
binds | rootletin (from UniProt Q8CJ40 1-2009)
binds | tubulin α-4A (from UniProt P68368 1-448)
binds | B1
binds | B2
binds | B3
binds | B4
binds | B5
binds | B6

— article PMC9603860
